Results: PubChem BioAssay AID504467 (National Center for Advancing Translational Sciences (NCATS), 2011)
Among all 330,000 compounds or so, about 7,700 (2.3%) were called active. This list was built around the results that the source calls inconclusive (neither active nor inactive); the mix of calls is not that of the screen. Calls follow the shape of the dose curve; as a rule, active = well fitted inhibition curve with a large enough effect; inconclusive = small, poorly fitted or top-dose-only effect, or effect the other way; inactive = flat fitted curve, though single readings scatter. A potency beside an inconclusive call is a rough fit, not a confirmed value.

experiment: qHTS screen for small molecules that inhibit ELG1-dependent DNA repair in human embryonic kidney (HEK293T) cells expressing luciferase-tagged ELG1; conditions: HEK293T ELG1-luciferase reporter, luminescence, 16 h, DNA damage induced by 5-fluorouridine; activity change, negative = inhibition: at 46.1 µM (top of the series); also: nearly all actives have a fitted effect of over 55% in size
Procedure, shortened: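 DMSO vehicle served as the neutral condition. Each well held 2,000 cells given 5-fluorouridine plus compound; after 16 hr at 37 °C/5% CO2, ONE-Glo was added and luciferase measured 30 min later.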
% is scaled to controls: 0 for no effect and ±100 for the full control effect; potency is read from the fitted curve at half-maximal effect.

Question: For Cc1ccc(Nc2ncnc(N)n2)cc1C, which Potency is on record?
Answer: inconclusive: 29.1 µM [activator, single point]

Question: For Cc1ccc(SCC(=O)O/N=C(\N)c2cccnc2)cc1, which Potency is on record?
Answer: inconclusive: 29.1 µM [activator, single point]

Question: For Cc1cccc(N2CCN(C(=O)c3cc(S(=O)(=O)N4CCCC4)cn3C)CC2)c1C, which “activity change, negative = inhibition” value is on record?
Answer: inactive: -1.66%

Question: Which Potency does the source give for S=C(NCCc1ccccn1)Nc1ccccc1Cl here?
Answer: inconclusive: 20.6 µM [activator, partial curve, poor fit]

Question: For CN(C(=O)COC(=O)c1c2c(nc3ccccc13)/C(=C/c1cccc([N+](=O)[O-])c1)CCC2)C1CCS(=O)(=O)C1 (configuration not stated), which Potency is on record?
Answer: active: 5.8 µM

Question: Which Potency does the source give for O=C1N/C(=C/c2ccc(Br)cc2)C(O)=C1C=NCc1ccccc1 here?
Answer: inconclusive: 4.11 µM [inhibitor, full curve]

Question: For O=S(=O)(CCOc1ccccc1)N1CCOCC1, which Potency is on record?
Answer: inconclusive: 23.1 µM [activator, single point]

Question: For NS(=O)(=O)c1ccc(CNC(=O)c2ccc(NS(=O)(=O)c3cccs3)cc2)cc1, which Potency is on record?
Answer: inconclusive: 29.1 µM [activator, partial curve, poor fit]

Question: With O=C(CSc1ncn[nH]1)Nc1ccc2c(c1)OCCO2 as the compound, how does the Potency read?
Answer: inconclusive: 20.6 µM [activator, partial curve]

Question: With Cc1ccnc(NCc2ccccc2O)c1 as the compound, how does the Potency read?
Answer: inconclusive: 14.1 µM [activator, single point]

Question: With Cc1cc(NC(=O)c2ccc([N+](=O)[O-])cc2Cl)no1 as the compound, how does the Potency read?
Answer: inconclusive: 14.6 µM [activator, partial curve]

Question: For COc1ccccc1NC(=O)C/C(C)=N/NC(=O)COc1c(Br)cc(Br)cc1OC, which “activity change, negative = inhibition” value is on record?
Answer: inactive: -11.3%

Question: For CN1c2ccccc2C(=O)NC1c1ccc(Cl)cc1 (configuration not stated), which Potency is on record?
Answer: inconclusive: 13 µM [activator, partial curve, poor fit]

Question: With COc1ccc(-c2ccoc2)cc1[C@H]1[C@H]2C=CC[C@@H](C)[C@@H]2C(=O)N1Cc1ccccc1 as the compound, how does the “activity change, negative = inhibition” value read?
Answer: inactive: -27.4%

Question: With CCOC(=O)N1CCc2c(sc3ncn(Cc4ccc(F)cc4)c(=O)c23)C1 as the compound, how does the Potency read?
Answer: inconclusive: 25.9 µM [inhibitor, single point]

Question: With COc1ccc(CN2CCCCC2C(=O)Nc2ccc(OC)c(OCC(C)C)c2)cc1OC (configuration not stated) as the compound, how does the Potency read?
Answer: inconclusive: 13 µM [inhibitor, partial curve]

Question: For Cc1n[nH]c(C)c1S(=O)(=O)N1CCCC(C(=O)NCc2ccc(F)cc2)C1 (configuration not stated), which “activity change, negative = inhibition” value is on record?
Answer: inactive: 11.4%

Question: For COC(=O)c1c(NC(=O)c2ccccc2C(=O)O)sc2c1CCC2, which Potency is on record?
Answer: inconclusive: 1.41 µM [inhibitor, partial curve, poor fit]

Question: For CC(=O)Nc1ccc(NC(=O)C(C)OC(=O)C2(c3ccc(Cl)cc3)CCCC2)cc1 (configuration not stated), which Potency is on record?
Answer: inconclusive: 16.4 µM [inhibitor, single point]

Question: Which Potency does the source give for COc1ccc(/C=C/C(=O)NCCSCc2ccco2)cc1 here?
Answer: inconclusive: 20.6 µM [activator, partial curve, poor fit]

Question: For COCCCn1c(-c2ccccc2Cl)n[nH]c1=S, which “activity change, negative = inhibition” value is on record?
Answer: inactive: 5.93%

Question: With Cc1ccc(C(=O)Nc2ccc(Cl)cn2)cc1 as the compound, how does the Potency read?
Answer: inconclusive: 0.517 µM [activator, full curve]

Question: Which Potency does the source give for CC1(C2CC2)NC(=O)N(CC(=O)N2CCN(c3ccc(F)cc3)CC2)C1=O (configuration not stated) here?
Answer: inconclusive: 29.1 µM [activator, single point]

Question: Which “activity change, negative = inhibition” value does the source give for Nc1nc(SCC(=O)Nc2cc(Cl)c(Cl)cc2Cl)n[nH]1 here?
Answer: inactive: 6.93%

Question: Which Potency does the source give for COc1ccc(S(=O)(=O)N2CCCC(C(=O)Nc3ccc4c(c3)OCCO4)C2)cc1 (configuration not stated) here?
Answer: inconclusive: 18.4 µM [inhibitor, single point]

Question: Which “activity change, negative = inhibition” value does the source give for COc1ccc(OCc2cc(C(=O)NC(C)Cc3cccnc3)no2)c(Cl)c1 (configuration not stated) here?
Answer: inactive: 11.1%

Question: For O=C1C=CC(=O)N1CCNc1ncc(C(F)(F)F)cc1Cl, which Potency is on record?
Answer: inconclusive: 29.1 µM [activator, single point]

Question: Which Potency does the source give for COc1ccc(-c2csc(NC(=O)c3ccccc3NS(=O)(=O)c3ccc(C)cc3)n2)cc1 here?
Answer: active: 13 µM

Question: With O=C(Nc1ccccc1F)c1cc2nc(C(F)F)cc(C(F)F)n2n1 as the compound, how does the Potency read?
Answer: inconclusive: 13 µM [activator, partial curve]

Question: For COc1ccc(NC(=O)[C@H](C)NC(N)=O)cc1S(=O)(=O)Nc1cc(C)ccc1Br, which “activity change, negative = inhibition” value is on record?
Answer: inactive: 9.51%

Question: For Cc1ccc(SCC(=O)N2c3ccccc3Sc3ccccc32)cc1, which “activity change, negative = inhibition” value is on record?
Answer: inactive: -3.26%

Question: With S=C1NCN(Cc2ccco2)CN1c1ccccc1 as the compound, how does the “activity change, negative = inhibition” value read?
Answer: inactive: -4.55%

Question: With Cc1cc(C(=O)CS(=O)(=O)c2ccccc2)cc(C)c1O as the compound, how does the “activity change, negative = inhibition” value read?
Answer: inactive: 0%

Question: For C(=C\c1nc(-c2cccnc2)no1)/c1ccccc1, which Potency is on record?
Answer: inconclusive: 14.6 µM [activator, partial curve, poor fit]

Question: With COc1cccc(NC(=O)Nc2ccc3c(c2)OCO3)c1 as the compound, how does the Potency read?
Answer: inconclusive: 9.2 µM [activator, partial curve]

Question: Which Potency does the source give for COC(=O)[C@]1(C)N[C@H](c2ccc(-c3ccccc3)cc2)[C@@H]2C(=O)N(C)C(=O)[C@@H]21 here?
Answer: inconclusive: 12.6 µM [inhibitor, single point]

Question: Which “activity change, negative = inhibition” value does the source give for CC(C)CCOc1ccc(C2(C)NC(=O)NC2=O)cc1 (configuration not stated) here?
Answer: inactive: 8.6%

Question: For CN1CCN(C(=S)c2ccc(OCC(=O)Nc3cccc(C(F)(F)F)c3)cc2)CC1, which Potency is on record?
Answer: active: 18.4 µM

Question: For c1ccc(-n2nnnc2Sc2ncnc3sc4c(c23)CCCC4)cc1, which Potency is on record?
Answer: inconclusive: 23.1 µM [inhibitor, single point]

Question: Which “activity change, negative = inhibition” value does the source give for COc1ccc2[nH]c3c(c2c1)CCN1C(=O)N([C@@H](C)C(=O)NCc2ccc(F)cc2)C(=O)[C@]31C here?
Answer: inactive: -27.8%

Question: Which Potency does the source give for O=C(Nc1ccc2c(c1)N(S(=O)(=O)c1cccs1)CCC2)c1c(F)cccc1F here?
Answer: inconclusive: 4.61 µM [inhibitor, single point]

Question: For Cc1ccc(NC(=S)N2CCc3[nH]c4ccccc4c3C2)cc1, which “activity change, negative = inhibition” value is on record?
Answer: inactive: 5.32%

Question: For CCCCC(NC(C)=O)c1nc2ccccc2[nH]1 (configuration not stated), which Potency is on record?
Answer: inconclusive: 18.4 µM [inhibitor, single point]

Question: Which Potency does the source give for O=C(c1cccc(C(F)(F)F)c1)C1CCCN(Cc2ccc(OCCO)cc2)C1 (configuration not stated) here?
Answer: inconclusive: 23.1 µM [inhibitor, partial curve, poor fit]

Question: With COc1ccc(C2=CC3=C(Br)C(=O)C(C)(OC(=O)C4CCCC4)C(=O)C3=CO2)cc1 (configuration not stated) as the compound, how does the Potency read?
Answer: inconclusive: 23.1 µM [activator, partial curve, poor fit]

Question: Which “activity change, negative = inhibition” value does the source give for COC(=O)C1=C(C)NC(=S)NC1c1ccc(OC(=O)c2ccco2)cc1 (configuration not stated) here?
Answer: inactive: 7.24%

Question: For O=C(O)c1ccccc1N/N=C/C1=C(N2CCOCC2)C(=C\c2ccccc2)/CC1, which Potency is on record?
Answer: inconclusive: 20.6 µM [inhibitor, single point]

Question: For c1csc(-c2csc3nc(CN4CCOCC4)nc(NCc4ccc5c(c4)OCO5)c23)c1, which Potency is on record?
Answer: inconclusive: 29.1 µM [inhibitor, single point]

Question: For COc1cc(C(=O)OCc2cc(=O)c(O)co2)ccc1OC(F)F, which “activity change, negative = inhibition” value is on record?
Answer: inactive: -3.95%

Question: With Cc1cccc(N2CC(C(=O)Nc3nccs3)CC2=O)c1C (configuration not stated) as the compound, how does the “activity change, negative = inhibition” value read?
Answer: inactive: 4.75%

Question: Which Potency does the source give for O=C(c1ccc2c(c1)OCO2)N(Cc1ccco1)C1(C(=O)NC2CCCCC2)CCCCC1 here?
Answer: inconclusive: 6.51 µM [inhibitor, partial curve, poor fit]

Question: With Cc1c(C(=O)Nc2ccc(Nc3ccccc3)cc2)cccc1[N+](=O)[O-] as the compound, how does the Potency read?
Answer: inconclusive: 23.1 µM [inhibitor, partial curve, poor fit]

Question: With COCCn1c(SCC(=O)NCc2ccc(F)cc2)nc2ccccc21 as the compound, how does the “activity change, negative = inhibition” value read?
Answer: inactive: 23.2%

Question: Which Potency does the source give for Cc1ccccc1C(=O)NNC(=O)/C=C\C(=O)O here?
Answer: inconclusive: 32.6 µM [activator, single point]

Question: Which Potency does the source give for COc1ccccc1NC(=O)CSc1nnc(-c2ccccn2)o1 here?
Answer: inconclusive: 18.3 µM [activator, partial curve]

Question: Which Potency does the source give for O=C1c2ccc(-c3ccc(Cl)c(C(F)(F)F)c3)cc2S(=O)(=O)c2cccc(C(=O)N3CCN(c4ncc(Br)cn4)CC3)c21 here?
Answer: inconclusive: 16.4 µM [activator, single point]

Question: With COc1ccc2occ(C(=O)c3coc4ccc(O)c(CN(C)C)c34)c2c1 as the compound, how does the Potency read?
Answer: inconclusive: 16.4 µM [inhibitor, partial curve]

Question: Which Potency does the source give for COc1cc(-c2nc(-c3ccccn3)no2)cc(OC)c1OC here?
Answer: inconclusive: 5.17 µM [activator, partial curve]

Question: With COc1ccc(N2CCN(C(C)C(=O)N3CCc4ccccc43)CC2)cc1 (configuration not stated) as the compound, how does the Potency read?
Answer: inconclusive: 29.1 µM [inhibitor, single point]

Question: Which Potency does the source give for CCC(=O)c1ccc(OCc2ccc(C(=O)c3ccccc3)cc2)cc1 here?
Answer: inconclusive: 18.3 µM [inhibitor, partial curve, poor fit]

Question: For CC(NC(=O)COC(=O)/C=C/c1ccc(Cl)cc1)c1ccccc1 (configuration not stated), which activity change, negative = inhibition is on record?
Answer: inconclusive: 62.1% [activator]

Question: With C[C@]12c3[nH]c4ccc(Cl)cc4c3CCN1C(=O)[C@@H](CC(=O)NCc1cccc(C(F)(F)F)c1)C[C@@H]2C(=O)N1CCCCC1 as the compound, how does the Potency read?
Answer: active: 23.1 µM

Question: With Cc1ccc(NC(=O)NC(=O)N(C(C)C)S(=O)(=O)c2ccc(C)cc2)cc1 as the compound, how does the Potency read?
Answer: inconclusive: 20.6 µM [activator, single point]

Question: For CC1=C(C(=O)OCC(Cl)(Cl)Cl)N2C(=O)C(NC(=O)Cc3ccccc3)C2SC1 (configuration not stated), which Potency is on record?
Answer: inconclusive: 0.13 µM [activator, partial curve]

Question: For CCn1ccnc1CN(C)C(=O)C1CCC(=O)N(CCc2cccc(F)c2)C1 (configuration not stated), which Potency is on record?
Answer: inconclusive: 29.1 µM [activator, single point]

Question: For CCN(CC)C(=O)[C@H]1C[C@H](CC(=O)NCCCN(C)C)C(=O)N2CCc3c([nH]c4ccc(Cl)cc34)[C@]12C, which Potency is on record?
Answer: inconclusive: 29.1 µM [activator, single point]

Question: With C[C@H](CO)N1C[C@H](C)[C@@H](CN(C)Cc2ccc(C(=O)O)cc2)Oc2ccc(NS(C)(=O)=O)cc2C1=O as the compound, how does the “activity change, negative = inhibition” value read?
Answer: inactive: 10.6%
